No constants are given. Whether binding was seen depends on the method and setting. Values belong to the binder of their own block, whether it stands above or below them.
Columns and labels:
[1] = target: AoRib2 deaminase domain (residues 1-188) (Aspergillus oryzae) (UniProt Q2UFA9); experiment: AUC; sedimentation velocity, 0.3 mg/ml protein in 20 mM PBS pH 7.5, 293 K, 42 000 rev/min, analysed with SEDFIT; both purified
[2] = target: Aspergillus oryzae Rib2 deaminase (Aspergillus oryzae) (UniProt Q2UFA9); experiment: as above

binding [1]: no binding (tested: 0.3 mg ml^-1)
B1: AoRib2 deaminase domain (residues 1-188) (domain or fragment, UniProt Q2UFA9 1-188)
chain: MQSPHAKYLRECLSLAEKSPPRPTNFRVGAILVSRKEGDYKTEDDRIVSTGYTMELAGNTHAEQCCLSNYAAVHSVPEDRVWEVLPSEPDRKLVMYVTMEPCGKRLSGNLPCVQRIIRTRQGDRKGIQKIYFGVKEPGTFVGGSEGCQMLTAAGIDWQVVNGLEREILEVAVAGHENREEEVKAALDT

binding [2]: no binding (tested: 0.3 mg ml^-1)
B2: Aspergillus oryzae Rib2 deaminase (enzyme, UniProt Q2UFA9 1-222)
chain: MQSPHAKYLRECLSLAEKSPPRPTNFRVGAILVSRKEGDYKTEDDRIVSTGYTMELAGNTHAEQCCLSNYAAVHSVPEDRVWEVLPSEPDRKLVMYVTMEPCGKRLSGNLPCVQRIIRTRQGDRKGIQKIYFGVKEPGTFVGGSEGCQMLTAAGIDWQVVNGLEREILEVAVAGHENREEEVKAALDTVETNIDDISDDERRRQQEAQRNPKKRMMEANLLG

Reference: PMC8256712, “Crystal structures of Aspergillus oryzae Rib2 deaminase: the functional mechanism involved in riboflavin biosynthesis” (IUCrJ, 2021)
